Tested on: male ICR mice
Assay: Analgesic assay by the tail-flick method in mice
Type: in vivo
Settings: relative to morphine sulfate = 1, molar basis
Procedure: For analgesic assay, male ICR mice weighing 25-30 g were used in all the experiments. The enkephalin analogs dissolved in saline were administered either centrally according to the method described by Haley and McCormick, Br. J. Pharmacol, 12, 12 (1957) or intravenously via the tail vein. The injection volume is 5 μl for central injection and 10 μl per gram body weight for intravenous injection. Naloxone HCl (3 mg/kg) was injected subcutaneously 5 min before the administration of enkephalin analogs. Analgesic activity was assayed by the tail-flick method of D'Amour and Smith, J. Pharmacol, Exp. Ther. 72, 74 (1941).
The percent of analgesia was calculated as [(T1 -T0)/(T2 -T0)] × 100, where a control latency (T0) was obtained from the mean of two latencies determined before drug injection; the test latencies (T1) were determined at various times after injection for each animal; the cutoff time (T2) for the tail-flick was 7 seconds. The median analgesic dose (AD50) and 95% confidence limits were calculated according to the method of Litchfield and Wilcoxon, J. Pharacol. Exp. Ther. 96, 99 (1949). The locomotor activity to the mice was measured with an electronic Fe 40 motility meter (Motron Produkter, Stockholm, Sweden). The detail of the experimental method has been described by Tseng et al., Nature (London) 263, 239 (1976).

Compound: CN1CC[C@]23c4c5ccc(O)c4O[C@H]2[C@@H](O)C=C[C@H]3[C@H]1C5.O=S(=O)(O)O [Morphine sulfate, reference compound]
- Intracerebroventricular potency ratio (intracerebroventricular): 1
- Intravenous potency ratio (intravenous): 1
